Patent US8629241B2 (The University of Queensland, priority 2004, dated 2014)

Legend:
[1] = general procedure: Fmoc solid-phase peptide synthesis; Rink Amide MBHA resin; trityl chloride resin; HBTU/DIPEA; BOP/DIPEA for cyclisation and fragment coupling
[2] = general procedure: Fmoc solid-phase peptide synthesis; trityl chloride resin; HBTU/DIPEA; BOP/DIPEA for cyclisation and fragment coupling; conditions: whole synthesis, scale 1.16 mmol
[3] = general procedure: Fmoc solid-phase peptide synthesis; Rink Amide MBHA; HBTU/DIPEA; BOP/DIPEA for cyclisation and fragment coupling; conditions: whole synthesis

Substance	step yield [1]	isolated yield [3]	further results
cyclo(1-5, 6-10, 11-15)-Ac-[KARADKARADKARAD]-NH2. (N-acetyl, C-amide, three lactam cyclizations)	5.5% (isolated)		
Boc-(cyclo-1-5)-KAR(Pbf)AD-OH			crude yield [2]: Yield 50%
PEPTIDE1{[ac].K.A.R.A.D.K.A.R.A.D.[am]}$$$$V2.0		Yield 20% (isolated)	
PEPTIDE1{[ac].K.A.R.A.D.K.A.R.A.D.[am]}$PEPTIDE1,PEPTIDE1,2:R3-6:R3|PEPTIDE1,PEPTIDE1,7:R3-11:R3$$$V2.0	10% isolated		
NH2-(cyclo-1-5)-KARAD-NH2 (C-amide, cyclized 1-5)			isolated yield ([3]; scale 1.56 mmol): Yield 30% (isolated)
Ac(KARAD)n-NH2 where n=3 (KARADKARADKARAD; N-acetyl, C-amide)		Yield 30% (isolated)	

For part of these data: HELM strings list residues between dots; [ac] is acetyl, [am] amide, other brackets name non-standard units.
